Experiment [1] deals with T1, Claudin 3 (UniProt O15551 1-220).
T1 construct: also called CLDN3
T1 sequence (looked up): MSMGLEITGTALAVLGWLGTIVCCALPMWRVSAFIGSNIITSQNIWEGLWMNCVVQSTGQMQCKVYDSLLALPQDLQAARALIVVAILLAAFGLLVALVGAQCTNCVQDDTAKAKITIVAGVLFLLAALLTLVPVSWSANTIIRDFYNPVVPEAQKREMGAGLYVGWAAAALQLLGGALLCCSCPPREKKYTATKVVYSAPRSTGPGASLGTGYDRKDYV
The experiment can be described thus: flow cytometry, HEK-293T cells transiently transfected with the indicated claudin; pUC19 = empty vector control. The procedure: (§1) FIG. 2 illustrates the results of a binding assay showing that Claudin 6 MAbs bind to human Claudin 6 preferentially over other Claudin proteins. Human embryonic kidney 293T (HEK-293T) cells were transiently transfected with DNA for the indicated Claudin protein or empty vector along with GFP (pUC) for 22 hours.
(In general: A flow cytometer gives signals particle by particle.)

The target in experiment [2] is T2, Claudin 9 (UniProt O95484 1-217).
T2 construct: Octet KD values: intact claudin protein embedded in virus-like particles (lipoparticles); also called CLDN9
T2 sequence (looked up): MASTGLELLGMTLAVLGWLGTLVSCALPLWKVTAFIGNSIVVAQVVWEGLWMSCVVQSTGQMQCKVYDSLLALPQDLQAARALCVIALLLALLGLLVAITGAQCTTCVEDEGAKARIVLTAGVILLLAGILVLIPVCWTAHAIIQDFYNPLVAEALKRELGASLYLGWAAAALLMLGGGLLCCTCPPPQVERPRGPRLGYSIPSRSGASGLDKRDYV
The experiment is described as above. The procedure: as §1

Experiment [3] concerns the target T3, Claudin 4 (UniProt O14493 1-209).
T3 construct: also called CLDN4
T3 sequence (looked up): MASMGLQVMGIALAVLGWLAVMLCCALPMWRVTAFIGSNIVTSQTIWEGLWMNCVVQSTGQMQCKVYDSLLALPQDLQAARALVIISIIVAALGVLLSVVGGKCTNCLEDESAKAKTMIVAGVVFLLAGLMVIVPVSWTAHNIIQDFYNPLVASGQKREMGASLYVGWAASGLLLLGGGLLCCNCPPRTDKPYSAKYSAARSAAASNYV
The description is as above. The procedure: as §1

Experiment [4] deals with T2, Claudin 9. The experiment in a line: binding assay of the 13th table, method not described.
The target in experiment [5] is T1, Claudin 3. The description is as above.
The target of experiment [6] is T3, Claudin 4. Described as above.

Results are given in words; binding and its absence hold for the method and conditions named. Some binding calls cover weakened binding; strength is not graded here.

B1: IM172 (antibody, V domains shown)
VH: AVTLDESGGGLQTPGGALSLVCKGSGFSISSYTMQWVRQAPGKGLEWVAGIYSGSRTYYGAAVQGRATISRDNGQSTVRLQLNNLRAEDTGTYYCAKSSYCTAWTGCDVYAGGSIDAWGHGTEVIVSS
VL: ALTQPSSVSATPGGTVEITCSGDSSDDGSYYYGWYQQKSPGSAPVTVIYSNDKRPSSIPSRFSGSASGSTATLTITGVQADDEAVYFCGSYDSSTGIFGAGTTLTVL
notes: Detected with anti-human IgG Fc secondary
As for B1, the binding entry in experiment [1], in experiment [2] and in experiment [3] was “binds” each time.

B2: IM171 (antibody, V domains shown)
VH: AVTLDESGGGLQTPGGALSLVCKASGFDFSSYAMNWVRQAPGKGLEWVAGIGSTGSSTGYGPAVKGRATISRDNGQSTLRLQLNNLRAEDTAIYYCAKSVGNGNSWSGYIATSIDAWGHGTEVIVSS
VL: ALTQPSSVSANLGGTVKLTCSGGSSGYGWYQQKSPGSAPVTVIYSNDKRPSDIPSRFSGSLSGSTGTLTITGVQADDEAVYFCGSTDNSYVGIFGAGTTLTVL
notes: Detected with anti-human IgG Fc secondary; also called LM171
For the molecule B2, the binding entry in experiment [2] is given as “binds”.

B3: IM-35-N2H07-1HA (antibody, V domains shown)
VH: EVQLLESGGGLVQPGGSLRLSCAASGFTFSGYAMSWVRQAPGKGLEWVAGIYSSGSYTFYADSVKGRFTISRDNSKNTLYLQMNSLRAEDTAVYYCAKGTGYCDWSGWCYSGAANIDAWGQGTLVTVSS
VL: SYELTQPPSVSVSPGQTARITCSGGSGSYGYYGWYQQKPGQAPVLVIYGTNKRPSGIPERFSGSSSGTTVTLTISGVQAEDEADYYCGSEDSSSGAGIFGGGTKLTVL
Turning to B3, the binding result in experiment [4] is “binds”.

B4: IM-35-N1F09-1HA (antibody, V domains shown)
VH: EVQLLESGGGLVQPGGSLRLSCAASGFTFSSYGMSWVRQAPGKGLEWVAGIGSSGIYTHYADSVKGRFTISRDNSKNTLYLQMNSLRAEDTAVYYCAKSPGDSDWCGWAGYGIYSCRVAGFIDAWGQGTLVTVSS
VL: SYELTQPPSVSVSPGQTARITCSGGYNGHYGWYQQKPGQAPVLVIYGTNKRPSGIPERFSGSSSGTTVTLTISGVQAEDEADYYCGGYDSSAGIFGGGTKLTVL
Take B4: the binding entry in experiment [5], in experiment [4] and in experiment [6] was “binds” in each case.

B5: IM173 (antibody, V domains shown)
VH: AVTLDESGGGLQTPGGALSLVCKASGFTFSSYSMFWVRRAPGKGLEWVAGIDSGSTTFYGSAVKGRATISRDNGQSTVRLQLNNLRAEDTATYYCAKDAYGYCGWSGCSADSIDAWGHGTEVIVSS
VL: ALTQPSSVSANPGGTVEITCSGGNNYYGWYQQKSPGSAPVTVIYYNDKRPSDIPSRFSGSKSGSTGTLTITGVQADDEAVYFCGGWDSSGGIFGAGTTLTVL
notes: as for B1
In the case of B5, in experiment [3], the binding entry is “binds”.

B6: IM-271-1HGT (antibody, V domains shown)
VH: EVQLLESGGGLVQPGGSLRLSCAASGFTFSSYAMNWVRQAPGKGLEWVAGISSSGRYTGYADSVKGRFTISRDNSKNTLYLQMNSLRAEDTAVYYCAKSVGSGVSWSGYVATSLDVWGQGTLVTVSS
VL: SYELTQPPSVSVSPGQTARITCSAGSGLYGWYQQKPGQAPVLVIYGTNKRPSGIPERFSGSSSGTTVTLTISGVQAEDEADYYCGSNDASTNAGIFGGGTKLTVL
notes: also called CH-HAMF5-1HGT
For B6, the binding entry in experiment [4] and in experiment [6] was “binds” each time.

The values are drawn from patent US20220127355A1 (INTEGRAL MOLECULAR, published 2022).
